Binding signal data for 54 sequences are collected here from publication PMC7819943, “Rice protein-binding microarrays: a tool to detect cis-acting elements near promoter regions in rice”.

Sequences of proteins named here, by UniProt entry; tags and fusion partners are left off.
UniProt Q0JBA9, entry or part of it: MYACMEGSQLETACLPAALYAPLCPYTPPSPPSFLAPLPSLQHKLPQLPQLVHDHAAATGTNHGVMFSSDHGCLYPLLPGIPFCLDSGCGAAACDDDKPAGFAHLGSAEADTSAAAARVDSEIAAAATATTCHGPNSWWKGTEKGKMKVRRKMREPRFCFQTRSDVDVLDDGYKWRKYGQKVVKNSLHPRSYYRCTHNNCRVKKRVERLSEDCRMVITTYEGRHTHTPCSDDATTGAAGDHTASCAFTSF

The other results are listed elsewhere or left out.

In this assay the target is OsWRKY34 (Oryza sativa, UniProt Q0JBA9 1-250). The experiment in a line: protein-binding microarray (RPBM); PBS, 2% BSA, 51.3 ng/ul salmon testes DNA, 50 uM zinc acetate, 200 nM TF, 25 C, 1 h; high values mean tight binding. The conditions noted are these: protein: recombinant; tags: N-terminal polyhistidine and DsRed monomer fusion (pET32a); label: CyDye5-dUTP incorporated in the synthesized complementary strand; 3' TTTTT single-stranded linker to array surface; dsDNA, one strand shown. Put shortly:
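Binding signal is reported as fluorescence intensity per feature (arbitrary units) from an Axon 4000B scanner. Incubation used 200 nM of each Ni–NTA-purified, N-terminally polyhistidine- and DsRed-fused transcription factor from E. coli BL21-CodonPlus on a double-stranded custom Agilent array for 1 h at 25 °C, with 50 µM zinc acetate in the buffer, followed by washing.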
For “AGTTTTTACTAAATTTTAGTCACTGTTTTCCACAGAGGAACGGAGTCACCTAGTGCAG”, the binding signal is 9150 fluorescence intensity (a.u.).
The same measure for “GGGAAACCTCGTAGGATAAGTGTCCTTAATAGTCATTTCACGGAGTCACCTAGTGCAG”: 8230 fluorescence intensity (a.u.); for “TCGCTTCTCCTCCACACCCACGAATCCCCGCCGTCTCCTCCGGAGTCACCTAGTGCAG”: 9430 fluorescence intensity (a.u.); for “GCCGTGTCCGTTGCCGTGTTGCGTCCCACCCGTCACTCTACGGAGTCACCTAGTGCAG”: 8200 fluorescence intensity (a.u.).
Consider “CAAAGCACACTTCCGTTTCCGCTTTCCCTAGCGTTTGTTTCGGAGTCACCTAGTGCAG”, for which the binding signal is 9810 fluorescence intensity (a.u.).
Consider “TTTTTCTCTTTTCCTTCTCTCTCTTGGGCGACTATTTAACCGGAGTCACCTAGTGCAG”, for which the binding signal is 8500 fluorescence intensity (a.u.).
As for “GTCTGGATCAGAGCTGTCCACATTGGTTGTATTCCTCTTTCGGAGTCACCTAGTGCAG”, the figure is 8300 fluorescence intensity (a.u.); as for “CAGAGGTCAGTAACTCTTTCCTGCTTTCTACACTTGTTCCCGGAGTCACCTAGTGCAG”, 9420 fluorescence intensity (a.u.).
Turning to “CTCTCTCTCTCTCTCTCTCTACGACTCCCACCTCCACCTCCGGAGTCACCTAGTGCAG”, the binding signal was 8810 fluorescence intensity (a.u.).
As to “CTCCCTATATGTATACTCTAGTTTAATTAGTTTGTTGAGACGGAGTCACCTAGTGCAG”, the binding signal is 8190 fluorescence intensity (a.u.).
The same measure for “AGGTAGGGTTTGCCTTTTCATTTTCCAAAACCGATGACTTCGGAGTCACCTAGTGCAG”: 8450 fluorescence intensity (a.u.).
As for “TTTCCTCTAAAGTTCGTCGCGTCTTCTCTGTTCTTCTTCACGGAGTCACCTAGTGCAG”, the figure is 13100 fluorescence intensity (a.u.); as for “TCTTCTGCTTCCTCTACATCTCCATCGGCCTCGCCGCCTACGGAGTCACCTAGTGCAG”, 8960 fluorescence intensity (a.u.).
The same measure for “TGAGTTCAATTTTTCTATGGTTGGTTCTTGTGTGTCCCTACGGAGTCACCTAGTGCAG”: 9270 fluorescence intensity (a.u.); for “TCGAACGTGTCCGGAATTTTATCGTTTCTGAAGGTTTTTTCGGAGTCACCTAGTGCAG”: 9910 fluorescence intensity (a.u.); for “CACACGATTGAGTGACCAGATTACTCATTACACGTTCAATCGGAGTCACCTAGTGCAG”: 8580 fluorescence intensity (a.u.).
As to “GAGGGGCGCGTTTTATCCGATTTTGCGGTTTAGGGACGAACGGAGTCACCTAGTGCAG”, the binding signal is 10800 fluorescence intensity (a.u.).
Regarding “ATTGGTTGTGCGTCGTCTTGTGTGTCTCTTTCACAGCGACCGGAGTCACCTAGTGCAG”, the binding signal is 11600 fluorescence intensity (a.u.).
For “TGGGATGGTTGACGGGAAGGAAGGAAAGGGGAAAAGAAGGCGGAGTCACCTAGTGCAG”, the binding signal was 8280 fluorescence intensity (a.u.).
As for “ACGCAACCGATCAGTCTCGCTTCTCGCCTCGTCTCGTCTCCGGAGTCACCTAGTGCAG”, the figure is 12100 fluorescence intensity (a.u.); as for “GGTTATATACGGTTGGGAGAGGAGAGCTGACTTGGCGGGGCGGAGTCACCTAGTGCAG”, 10000 fluorescence intensity (a.u.).
For the sequence “GAGATCCTACTTCTTTGAGCCTCTTGCTTTCAATGTTCTGCGGAGTCACCTAGTGCAG”, the binding signal was 8910 fluorescence intensity (a.u.).
“TGGCGGCGTGGAGCCGCGAGGGCGGTGGCGGCGGGGAGTTCGGAGTCACCTAGTGCAG”: the binding signal is 10400 fluorescence intensity (a.u.).
As for “ACAGATGATTCTTGCGCTTTTGATTTTCCCTACGCTTTTTCGGAGTCACCTAGTGCAG”, the figure is 9710 fluorescence intensity (a.u.).
As for “ATCTATCACCCACTAACCACTCATCTCTCATTTTTTCTTTCGGAGTCACCTAGTGCAG”, the figure is 12600 fluorescence intensity (a.u.).
Turning to “GATCTCCGCCGACGTCCCCATCCTCCACTCGGAGAACCTCCGGAGTCACCTAGTGCAG”, the binding signal was 11000 fluorescence intensity (a.u.).
Take “TCCCACGCTTCCGCTTCCGCATCAGACAAACCTCTCACTACGGAGTCACCTAGTGCAG”: the binding signal is 10500 fluorescence intensity (a.u.).
As for “ATGAATGCCGTTCTTGCTTTATCCAGTACATGTAAACATTCGGAGTCACCTAGTGCAG”, the figure is 8850 fluorescence intensity (a.u.); as for “CGGTTCGATGGCTGGTCTAGTCTCAATAACTATGATTCAACGGAGTCACCTAGTGCAG”, 9090 fluorescence intensity (a.u.); as for “ACAGTTTCTCTTGCTCTCTTTTTTTCCTTTTCATTCTTTCCGGAGTCACCTAGTGCAG”, 13400 fluorescence intensity (a.u.).
Turning to “AAGATTCAGCAGCATTTTGGCCATTGACCCTTACCCTTCACGGAGTCACCTAGTGCAG”, the binding signal was 10100 fluorescence intensity (a.u.).
Take “CCTTTAATTATCAATTGTTTTACTTTGCTCTAATACACTTCGGAGTCACCTAGTGCAG”: the binding signal is 10200 fluorescence intensity (a.u.).
In the case of “GTCCATTCCCGTGGGTACAGCTCGTGGGTTCTTCCCGATTCGGAGTCACCTAGTGCAG”, the binding signal was 8540 fluorescence intensity (a.u.).
Turning to “CTTGGGCATATATATGGAGTATATATTTATCATCAATTCCCGGAGTCACCTAGTGCAG”, the binding signal is 8720 fluorescence intensity (a.u.).
As for “TCATTGTGTTTGATTTCCCTTATGTCTACACCAAAAAGCACGGAGTCACCTAGTGCAG”, the binding signal is 8230 fluorescence intensity (a.u.).
With “TGTATGATGCCTTTAACTTTTTAACCAACGTTTAATGTTTCGGAGTCACCTAGTGCAG”, the binding signal was 9010 fluorescence intensity (a.u.).
The same measure for “CATCATCCATCCATCCATCCACCGATTTATCACTCAGACACGGAGTCACCTAGTGCAG”: 8410 fluorescence intensity (a.u.); for “TCTTCTCTTTCTCTCTTTCTTTGTGATCCGTGCAGAAGAACGGAGTCACCTAGTGCAG”: 8960 fluorescence intensity (a.u.).
For “CATCGCGGTCACTCGTTTTCATCTCGTGGGACGGGTATATCGGAGTCACCTAGTGCAG”, the binding signal is 8320 fluorescence intensity (a.u.).
As to “AGTCGCTCTCCTTCTCTCCAAACCGACCTCCGCGACCTATCGGAGTCACCTAGTGCAG”, the binding signal was 8640 fluorescence intensity (a.u.).
Regarding “CAGCTTTCTCAACTCCTTTTCACACATCAAGTTCAATTGCCGGAGTCACCTAGTGCAG”, the binding signal was 10700 fluorescence intensity (a.u.).
As for “GCGTTTACCTGATCGCTCTTCAGTTTTGAACCACAGAATTCGGAGTCACCTAGTGCAG”, the figure is 8960 fluorescence intensity (a.u.); as for “TCGCGTAGGCAGAGCCGGTCGAGTCTTGTGCTTGCTTCTCCGGAGTCACCTAGTGCAG”, 8650 fluorescence intensity (a.u.); as for “ACCGAACCACACAACAACCGTCGCGGAACCACCACATCATCGGAGTCACCTAGTGCAG”, 8330 fluorescence intensity (a.u.).
As for “GCTATTTTTAGTTTTACATGGCCGCTCTCACTTCAATCCTCGGAGTCACCTAGTGCAG”, the binding signal was 12700 fluorescence intensity (a.u.).
The same measure for “TTCCCATGGTAACGATAGCCCAAGATTCATGGCCCAACCACGGAGTCACCTAGTGCAG”: 8850 fluorescence intensity (a.u.); for “AATCAACCTTTCAAAAAAGGGCGGGTTTTGCTAATTTTTTCGGAGTCACCTAGTGCAG”: 10300 fluorescence intensity (a.u.); for “AAAAAAGTTCATTTTGGGTTTCTGTGTATAAGTTTGACCACGGAGTCACCTAGTGCAG”: 9570 fluorescence intensity (a.u.).
As for “AGCTCCGCCGGCGCGTTGACTATGGGCGTGACGAGTTGCACGGAGTCACCTAGTGCAG”, the figure is 8060 fluorescence intensity (a.u.); as for “TTTCCATATTCAGAGTTTCAGACTATAGTGCCTTTGATTTCGGAGTCACCTAGTGCAG”, 8820 fluorescence intensity (a.u.); as for “TTTGTATACGCCCGTTGCCGCCCTATTTGACCATCGATAGCGGAGTCACCTAGTGCAG”, 14900 fluorescence intensity (a.u.).
The same measure for “TCCACACTGCCACCTTGTGCAACTATCAACACCATTGCCTCGGAGTCACCTAGTGCAG”: 10300 fluorescence intensity (a.u.); for “GCTTGCTTGCTTGTTGCTTCCATTCCATTCCATTCCACACCGGAGTCACCTAGTGCAG”: 10400 fluorescence intensity (a.u.); for “GCCCACATTGCACATTACTTTCTTGGGCCGCAAGAAGATCCGGAGTCACCTAGTGCAG”: 11100 fluorescence intensity (a.u.).
